# Results deposited as PubChem BioAssay AID743454 (Peter MacCallum Cancer Centre, 2014)
# Test: 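Genes whose loss kills vorinostat-resistant colon cancer cells under vorinostat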 (primary screen)
# Cells: human HCT116-VR colon cancer cells, selected for vorinostat resistance
# Reagents: siRNA pool against human genes, 40 nM siRNA pool
# Time to read-out: vorinostat for 24 h, read-out about 72 h after transfection
# Challenge: vorinostat at 2.5 µM final
# Measured: 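Cell viability by CellTiter-Fluor and caspase 3/7 activity by luminescence, each scaled to mock wells per plate, duplicates averaged, then robust z-scored over all plates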
# Reading the numbers: viability robust z-score: higher = more viable cells than screen typical; caspase robust z-score: higher = more caspase 3/7 activity than screen typical
# Active means: 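Hits are knock-downs in viability class RV1/RV2 or caspase class CA1/CA2, excluding ones that killed cells in the no-drug cell-count arm; hits then retested with single siRNAs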
# The deposit covers about 18,000 reagents; shown is an unselected part. 450 of them (2.5%) count as active. 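Single biological run; no consistent viability z cut-off exists, so the class columns, not z-scores, define the calls.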 Reagent sequences are not shown.
gene,viability hit class,caspase hit class,viability robust z-score,caspase robust z-score,Call
ABCC8 (ATP binding cassette subfamily C member 8),no change,no change,-1.62,0.22,inactive
ALKAL1 (ALK and LTK ligand 1),no change,no change,1.34,-0.69,inactive
TRPV5,no change,no change,-1.6,1.97,inactive
CYP26A1 (cytochrome P450 family 26 subfamily A member 1),no change,no change,1.04,2.05,inactive
CPN2 (carboxypeptidase N subunit 2),no change,no change,-0.36,-0.02,inactive
FASN (fatty acid synthase),no change,no change,0.72,-0.73,inactive
"OXSM (3-oxoacyl-ACP synthase, mitochondrial)",no change,no change,-2.66,-0.33,inactive
ZNF800 (zinc finger protein 800),no change,no change,0.38,-0.86,inactive
SEPHS1 (selenophosphate synthetase 1),no change,CA1 (caspase activation),0.72,5.29,active
TTLL2 (tubulin tyrosine ligase like 2),no change,no change,1.46,-0.14,inactive
ZNF695 (zinc finger protein 695),no change,no change,0.92,-0.7,inactive
AADACL2 (arylacetamide deacetylase like 2),no change,no change,-0.09,-1.12,inactive
LIG3 (DNA ligase 3),no change,no change,0.12,-1.08,inactive
FOXP1 (forkhead box P1),no change,no change,-2.94,1.63,inactive
INTS14 (integrator complex subunit 14),no change,no change,0.49,2.67,inactive
NUDT13 (nudix hydrolase 13),no change,no change,0.34,-0.49,inactive
SPACA5 (sperm acrosome associated 5),no change,no change,0.28,-0.38,inactive
SLC27A3,no change,no change,-0.56,0.3,inactive
SERINC2 (serine incorporator 2),no change,no change,-1.04,2.63,inactive
GNA15 (G protein subunit alpha 15),no change,no change,0.29,-0.07,inactive
NETO1 (neuropilin and tolloid like 1),no change,no change,-0.25,-0.04,inactive
TSC22D1 (TSC22 domain family member 1),no change,no change,-0.02,1.79,inactive
UBXN11 (UBX domain protein 11),no change,no change,-1.27,3.15,inactive

2 entries already listed, ordered by “viability robust z-score”, high to low:
gene,viability hit class,caspase hit class,viability robust z-score,caspase robust z-score,Call
FASN (fatty acid synthase),no change,no change,0.72,-0.73,inactive
CPN2 (carboxypeptidase N subunit 2),no change,no change,-0.36,-0.02,inactive
